Results from the supplement of paper PMC4604168 (melanoma cell lines).
This is one part of the list. Repeats are few or missing, and single values can be far off.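 The apoptosis fraction was the count of cleaved-PARP antibody-stained nuclei relative to all DNA-stained nuclei, imaged in 1,536-well plates. Screening doses were set so most cells survived, and baseline and induced cleaved-PARP levels vary greatly across cell lines.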

Tests used:
Assay in all cases: cleaved PARP positive nuclei fraction relative to DMSO control; melanoma cells; higher = more apoptosis
Details in all cases: library dose: low library concentration; 72 h
[1] = system: WM115
[2] = system: WM1716
[3] = system: WM1745
[4] = system: WM3526
[5] = system: WM3619
[6] = system: WM451Lu

Row | Structure (SMILES) | cleaved PARP positive nuclei fraction [1] [%] | cleaved PARP positive nuclei fraction [2] [%] | cleaved PARP positive nuclei fraction [3] [%] | cleaved PARP positive nuclei fraction [4] [%] | cleaved PARP positive nuclei fraction [5] [%] | cleaved PARP positive nuclei fraction [6] [%]
1 | CC(=O)O[C@@]12CO[C@@H]1C[C@H](O)[C@@]1(C)C(=O)[C@H](O)C3=C(C)[C@@H](OC(=O)[C@H](O)[C@@H](NC(=O)OC(C)(C)C)c4ccccc4)C[C@@](O)([C@@H](OC(=O)c4ccccc4)[C@H]21)C3(C)C [Docetaxel] + COc1ccc2c(c1)CCC1C2CCC2(C)C(NCCCCCCN3C(=O)C=CC3=O)CCC12 [U73122] (first compound 0.0001 µM, partner dose 0.4 µM) | 368 | 319 | 223 | 209 | 184 | 276
2 | C[C@@H](N)c1ccc(C(=O)Nc2ccnc3[nH]ccc23)cc1 + CCCCCCCCc1ccc(CCC(N)(CO)CO)cc1 [fingolimod] (first compound 0.4 µM, partner dose 2 µM) | 96.4 | 96.5 | 129 | 52.6 | 91.7 | 44.1
3 | CN(c1ncccc1CNc1nc(Nc2ccc3c(c2)CC(=O)N3)ncc1C(F)(F)F)S(C)(=O)=O + C[C@@H](Oc1cc(-c2cnn(C3CCNCC3)c2)cnc1N)c1c(Cl)ccc(F)c1Cl [Crizotinib] (first compound 0.08 µM, partner dose 0.2 µM) | 110 | 37.7 | 113 | 82.6 | 81.1 | 52.1
4 | CCCCCCCCc1ccc(CCC(N)(CO)CO)cc1 [fingolimod] + Cn1nnc2c(C(N)=O)ncn2c1=O [temozolomide] (first compound 2 µM, partner dose 2 µM) | 179 | 91.3 | 134 | 40.7 | 90.7 | 29
5 | CC(=O)O[C@@]12CO[C@@H]1C[C@H](O)[C@@]1(C)C(=O)[C@H](O)C3=C(C)[C@@H](OC(=O)[C@H](O)[C@@H](NC(=O)OC(C)(C)C)c4ccccc4)C[C@@](O)([C@@H](OC(=O)c4ccccc4)[C@H]21)C3(C)C [Docetaxel] + C[C@]1(c2nc3c(C(N)=O)cccc3[nH]2)CCCN1 [Veliparib] (first compound 0.0001 µM, partner dose 1.4 µM) | 320 | 289 | 176 | 300 | 368 | 187
6 | CC1(C)CCC(c2ccc(Cl)cc2)=C(CN2CCN(c3ccc(C(=O)NS(=O)(=O)c4ccc(N[C@H](CCN5CCOCC5)CSc5ccccc5)c(S(=O)(=O)C(F)(F)F)c4)cc3)CC2)C1 + Cc1cc(N2CCOCC2)cc2[nH]c(-c3c(NC[C@@H](O)c4cccc(Cl)c4)cc[nH]c3=O)nc12 [BMS536924] (first compound 0.4 µM, partner dose 0.2 µM) | 544 | 280 | 954 | 35.8 | 123 | 79.7
7 | Cn1cnc2c(F)c(Nc3ccc(Br)cc3Cl)c(C(=O)NOCCO)cc21 [selumetinib] + C=CCn1c(=O)c2cnc(Nc3ccc(N4CCN(C)CC4)cc3)nc2n1-c1cccc(C(C)(C)O)n1 [MK1775] (first compound 0.015 µM, partner dose 0.02 µM) | 327 | 44.8 | 105 | 85.7 | 117 | 190
8 | Cn1sc(=O)n(Cc2ccccc2)c1=O + O=C(O)c1ccc(-c2c[nH]c3ncc(-c4ccccc4)cc23)cc1C1CCCC1 [GSK650394] (first compound 0.4 µM, partner dose 0.16 µM) | 114 | 41.5 | 102 | 75.9 | 104 | 71.4
9 | CCN(CC)CCNC(=O)c1c(C)[nH]c(/C=C2\C(=O)Nc3ccc(F)cc32)c1C [sunitinib] + COc1cc2c(Oc3ccc4[nH]c(C)cc4c3F)ncnc2cc1OCCCN1CCCC1 [cediranib] (first compound 0.4 µM, partner dose 0.4 µM) | 97.9 | 115 | 109 | 181 | 89.6 | 66.1
10 | CC(=O)O[C@@]12CO[C@@H]1C[C@H](O)[C@@]1(C)C(=O)[C@H](O)C3=C(C)[C@@H](OC(=O)[C@H](O)[C@@H](NC(=O)OC(C)(C)C)c4ccccc4)C[C@@](O)([C@@H](OC(=O)c4ccccc4)[C@H]21)C3(C)C [Docetaxel] + Cc1ccc(NC(=O)c2cccc(N(C)C)c2)cc1NC(=O)c1ccc(O)cc1 [ZM336372] (first compound 0.0001 µM, partner dose 2 µM) | 75.8 | 336 | 207 | 143 | 168 | 159
11 | Cn1cnc2c(F)c(Nc3ccc(Br)cc3Cl)c(C(=O)NOCCO)cc21 [selumetinib] + Nc1nc(F)nc2c1ncn2[C@@H]1O[C@H](CO)[C@@H](O)[C@@H]1O [fludarabine] (first compound 0.015 µM, partner dose 0.2 µM) | 74.6 | 64.7 | 118 | 530 | 100 | 219
12 | C[C@@H](N)c1ccc(C(=O)Nc2ccnc3[nH]ccc23)cc1 + COc1cc(Nc2ncc(F)c(Nc3ccc4c(n3)NC(=O)C(C)(C)O4)n2)cc(OC)c1OC [Tamatinib] (first compound 0.4 µM, partner dose 0.4 µM) | 136 | 255 | 252 | 70.5 | 54.4 | 80.6
